{"source": "PubChem BioAssay AID1259254 (NCATS, 2017)", "purpose": "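Gene knock-downs that lead to re-replication, shown by excess G2 DNA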 (primary screen)", "cells": "human HCT116 colorectal cancer cells", "knock-down reagent": "single siRNA against human genes", "timing": "3 days", "measured": "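Imaged Hoechst DNA stain sorts each cell into a cycle phase by DNA amount; per plate, G2 fraction set to 0% for non-targeting and 100% for GMNN siRNA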", "reading the numbers": "G2 robust z-score and G2 cells, % of GMNN control: higher = more G2 cells, more excess DNA replication", "active means": "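Active siRNAs have a G2 robust z of 5 or more median absolute deviations over the median, which in these data means about 38% or higher of GMNN control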", "note": "The deposit covers about 59,000 reagents; below is a random part of them. Of all reagents, about 1,550 (2.6%) got an active call. 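G2 share is only a proxy for re-replication; each gene was hit by three separate siRNAs, and active genes were retested.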 Unmarked entries are inactive. Reagents against one gene are numbered here. Further read-outs or replicates are left out here. No sequences are given here. The record does not give: the amount of reagent."}
{"target": "BTC", "siRNA no.": 1, "G2 robust z-score": -1.15, "G2 cells, % of GMNN control": -5.09}
{"target": "BTC", "siRNA no.": 2, "G2 robust z-score": -1.07, "G2 cells, % of GMNN control": -4.55}
{"target": "BTC", "siRNA no.": 3, "G2 robust z-score": "5.17 (active)", "G2 cells, % of GMNN control": 39.3}
{"target": "APOBEC3A", "siRNA no.": 1, "G2 robust z-score": 0.795, "G2 cells, % of GMNN control": 8.56}
{"target": "APOBEC3A", "siRNA no.": 2, "G2 robust z-score": -0.192, "G2 cells, % of GMNN control": 1.62}
{"target": "APOBEC3A", "siRNA no.": 3, "G2 robust z-score": 0.278, "G2 cells, % of GMNN control": 4.93}
{"target": "TTC36", "siRNA no.": 1, "G2 robust z-score": -0.394, "G2 cells, % of GMNN control": 0.193}
{"target": "TTC36", "siRNA no.": 2, "G2 robust z-score": -0.419, "G2 cells, % of GMNN control": 0.0188}
{"target": "TTC36", "siRNA no.": 3, "G2 robust z-score": 0.979, "G2 cells, % of GMNN control": 9.85}
{"target": "LOXL2", "siRNA no.": 1, "G2 robust z-score": -0.141, "G2 cells, % of GMNN control": 1.97}
{"target": "LOXL2", "siRNA no.": 2, "G2 robust z-score": 0.486, "G2 cells, % of GMNN control": 6.39}
{"target": "LOXL2", "siRNA no.": 3, "G2 robust z-score": -1.25, "G2 cells, % of GMNN control": -5.83}
{"target": "LIPT1", "siRNA no.": 1, "G2 robust z-score": 2.56, "G2 cells, % of GMNN control": 21}
{"target": "LIPT1", "siRNA no.": 2, "G2 robust z-score": "5.35 (active)", "G2 cells, % of GMNN control": 40.6}
{"target": "LIPT1", "siRNA no.": 3, "G2 robust z-score": -0.113, "G2 cells, % of GMNN control": 2.17}

4 consecutive records from above, quoted:
{"target": "LOXL2", "siRNA no.": 2, "G2 robust z-score": 0.486, "G2 cells, % of GMNN control": 6.39}
{"target": "LOXL2", "siRNA no.": 3, "G2 robust z-score": -1.25, "G2 cells, % of GMNN control": -5.83}
{"target": "LIPT1", "siRNA no.": 1, "G2 robust z-score": 2.56, "G2 cells, % of GMNN control": 21}
{"target": "LIPT1", "siRNA no.": 2, "G2 robust z-score": "5.35 (active)", "G2 cells, % of GMNN control": 40.6}

More entries follow.
{"target": "TMEM229A", "siRNA no.": 1, "G2 robust z-score": -0.726, "G2 cells, % of GMNN control": -2.14}
{"target": "TMEM229A", "siRNA no.": 2, "G2 robust z-score": -0.994, "G2 cells, % of GMNN control": -4.03}
{"target": "TMEM229A", "siRNA no.": 3, "G2 robust z-score": 1.53, "G2 cells, % of GMNN control": 13.7}
{"target": "PLA2G3", "siRNA no.": 1, "G2 robust z-score": -0.216, "G2 cells, % of GMNN control": 1.45}
{"target": "PLA2G3", "siRNA no.": 2, "G2 robust z-score": 0.764, "G2 cells, % of GMNN control": 8.34}
{"target": "PLA2G3", "siRNA no.": 3, "G2 robust z-score": 2.51, "G2 cells, % of GMNN control": 20.7}
{"target": "C3orf49", "siRNA no.": 1, "G2 robust z-score": -0.964, "G2 cells, % of GMNN control": -3.81}
{"target": "C3orf49", "siRNA no.": 2, "G2 robust z-score": -0.187, "G2 cells, % of GMNN control": 1.65}
{"target": "C3orf49", "siRNA no.": 3, "G2 robust z-score": 0.631, "G2 cells, % of GMNN control": 7.41}
{"target": "LOC400870 (retired record)", "siRNA no.": 1, "G2 robust z-score": -0.46, "G2 cells, % of GMNN control": -0.266}
{"target": "LOC400870 (retired record)", "siRNA no.": 2, "G2 robust z-score": 2.4, "G2 cells, % of GMNN control": 19.8}
{"target": "LOC400870 (retired record)", "siRNA no.": 3, "G2 robust z-score": -0.22, "G2 cells, % of GMNN control": 1.42}
{"target": "KLC4", "siRNA no.": 1, "G2 robust z-score": 0.235, "G2 cells, % of GMNN control": 4.62}
{"target": "KLC4", "siRNA no.": 2, "G2 robust z-score": 1.01, "G2 cells, % of GMNN control": 10.1}
{"target": "KLC4", "siRNA no.": 3, "G2 robust z-score": 2.92, "G2 cells, % of GMNN control": 23.5}
